Construct, isoform or probe ends are uncertain for at least one entry. Results from cells or extracts need not show a direct contact. For some assays here: A weaker result is weaker than the reference pair of the same experiment. For some assays here: At least one verdict rests on a figure or table, not on a statement of the authors.
Assays:
[1] = molecular target: nucleolin on HeLa cells (human) (UniProt P19338); assay: confocal microscopy on HeLa cells; conditions: stronger uptake than WA-Cu30; protein on the cell surface; label: 3' FAM, copper nanoparticles grown on T30; single-stranded DNA
[2] = molecular target: Mucin 1 (MUC1) on the surface of MUC1+ cells (MCF-7, A549) (human) (UniProt P15941); assay: flow cytometry and confocal microscopy on cells; conditions: living-cell assays (flow cytometry, confocal microscopy), protein on the cell surface, label: copper nanoparticles grown on T30, single-stranded DNA
[3] = molecular target: Mucin 1 (MUC1) on the surface of MUC1+ cells (MCF-7, A549) (human) (UniProt P15941); assay: MTT prodrug activation on MCF-7 (indirect); conditions: complementary strand inhibits aptamer-protein binding; protein on the cell surface; label: copper nanoparticles grown on T30
[4] = molecular target: Mucin 1 (MUC1) on the surface of MUC1+ cells (MCF-7, A549) (human) (UniProt P15941); assay: flow cytometry on cells; conditions: no CuNPs; living-cell assays (flow cytometry, confocal microscopy); protein on the cell surface; single-stranded DNA

By UniProt entry, the sequences of proteins in these tests, tags left out. Where a name states a change or a piece, a line headed by the entry shows the natural chain unless it says otherwise.
UniProt P19338, whole entry: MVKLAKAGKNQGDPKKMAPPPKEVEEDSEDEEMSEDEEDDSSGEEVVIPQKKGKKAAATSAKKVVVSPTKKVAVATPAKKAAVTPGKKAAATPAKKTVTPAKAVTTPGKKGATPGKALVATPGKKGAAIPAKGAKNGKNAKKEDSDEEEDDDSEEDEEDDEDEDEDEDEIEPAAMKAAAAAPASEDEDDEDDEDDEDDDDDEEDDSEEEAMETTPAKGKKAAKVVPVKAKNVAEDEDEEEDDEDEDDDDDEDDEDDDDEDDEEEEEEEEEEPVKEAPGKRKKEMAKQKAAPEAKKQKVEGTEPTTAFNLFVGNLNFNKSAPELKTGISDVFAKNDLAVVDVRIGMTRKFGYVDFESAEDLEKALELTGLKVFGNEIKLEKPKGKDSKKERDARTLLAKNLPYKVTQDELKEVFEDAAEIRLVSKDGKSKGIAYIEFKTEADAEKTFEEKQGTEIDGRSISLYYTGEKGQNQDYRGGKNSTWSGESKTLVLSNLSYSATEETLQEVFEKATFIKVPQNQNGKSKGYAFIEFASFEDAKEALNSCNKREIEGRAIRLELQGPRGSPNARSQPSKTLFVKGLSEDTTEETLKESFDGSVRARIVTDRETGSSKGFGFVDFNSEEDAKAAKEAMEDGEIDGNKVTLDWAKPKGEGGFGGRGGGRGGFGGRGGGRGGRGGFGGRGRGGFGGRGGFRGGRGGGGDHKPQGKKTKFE
UniProt P15941: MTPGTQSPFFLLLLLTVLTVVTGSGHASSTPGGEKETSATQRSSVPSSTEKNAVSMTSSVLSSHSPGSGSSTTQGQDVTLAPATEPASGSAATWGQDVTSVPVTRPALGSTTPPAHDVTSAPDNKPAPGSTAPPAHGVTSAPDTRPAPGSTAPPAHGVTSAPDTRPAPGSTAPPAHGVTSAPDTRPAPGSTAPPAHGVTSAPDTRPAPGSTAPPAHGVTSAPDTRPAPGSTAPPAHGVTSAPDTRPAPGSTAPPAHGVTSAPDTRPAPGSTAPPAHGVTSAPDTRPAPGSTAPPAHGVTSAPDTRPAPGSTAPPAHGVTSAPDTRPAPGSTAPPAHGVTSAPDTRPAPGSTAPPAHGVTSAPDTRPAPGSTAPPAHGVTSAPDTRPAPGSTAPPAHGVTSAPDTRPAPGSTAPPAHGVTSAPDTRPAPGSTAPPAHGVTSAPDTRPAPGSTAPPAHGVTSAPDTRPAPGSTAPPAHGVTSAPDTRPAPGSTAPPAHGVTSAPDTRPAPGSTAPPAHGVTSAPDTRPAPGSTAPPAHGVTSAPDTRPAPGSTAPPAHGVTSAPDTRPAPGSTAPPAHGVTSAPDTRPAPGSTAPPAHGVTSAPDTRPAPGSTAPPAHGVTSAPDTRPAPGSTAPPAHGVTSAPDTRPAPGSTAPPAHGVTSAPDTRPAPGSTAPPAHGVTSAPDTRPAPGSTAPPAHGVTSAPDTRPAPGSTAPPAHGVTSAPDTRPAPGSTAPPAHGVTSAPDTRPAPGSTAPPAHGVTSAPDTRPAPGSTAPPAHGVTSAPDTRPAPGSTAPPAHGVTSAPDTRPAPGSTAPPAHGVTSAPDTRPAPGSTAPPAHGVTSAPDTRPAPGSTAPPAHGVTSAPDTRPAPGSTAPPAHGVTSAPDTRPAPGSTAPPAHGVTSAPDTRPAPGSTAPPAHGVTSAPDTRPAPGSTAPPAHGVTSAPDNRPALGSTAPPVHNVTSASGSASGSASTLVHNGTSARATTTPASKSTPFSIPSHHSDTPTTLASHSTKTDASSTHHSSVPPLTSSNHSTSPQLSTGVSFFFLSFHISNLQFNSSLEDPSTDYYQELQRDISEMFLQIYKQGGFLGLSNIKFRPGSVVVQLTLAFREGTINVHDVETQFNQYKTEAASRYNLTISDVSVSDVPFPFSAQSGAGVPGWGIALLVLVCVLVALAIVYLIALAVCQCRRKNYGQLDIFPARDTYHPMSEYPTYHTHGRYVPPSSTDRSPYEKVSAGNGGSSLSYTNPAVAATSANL

## GGTGGTGGTGGTTGTGGTGGTGGTGGCAACATCATCAACACTTTTTTTTTTTTTTTTTTTTTTTTTTTTTT [AApt-Cu30 (AS1411-T30-FAM with CuNPs)]
[1]
  binding result: binds

## TTTTTTTTTTTTTTTTTTTTTTTTTTTTTTCAACATCATCAACAC [WA-Cu30 (WA-T30 with CuNPs, no aptamer)]
[2]; MCF-7 and A549, weak signal, aptamer absent
  binding result: binds more weakly

## TTTTTTTTTTTTTTTTTTTTTTTTTTTTTTCAACATCATCAACACGGCTATAGCACATGGGTAAAACGAC / GTCGTTTTACCCATGTGCTATAGCC [MApt-Cu30-block (MUC1-T30 with complementary strand)]
[3]
  binding result: binds more weakly

## TTTTTTTTTTTTTTTTTTTTTTTTTTTTTTCAACATCATCAACACGGCTATAGCACATGGGTAAAACGAC [MApt (MUC1-T30 without CuNPs)]
[4]
  binding result: binds

## TTTTTTTTTTTTTTTTTTTTTTTTTTTTTTCAACATCATCAACACGGCTATAGCACATGGGTAAAACGAC [MApt-Cu30 (MUC1-T30 with CuNPs)]
[2]; MCF-7 and A549, slight or no shift on MUC1- or normal cells
  binding result: binds

From paper PMC8933418
